Assay results reported in patent publication US20230323410A1, “BACTERIAL CELLS AND METHODS FOR PRODUCTION OF 2-FLUORO-CIS,CIS-MUCONATE” (priority 2020, published 2023).

Tests used:
P. putida KT2440 = assay: Shaken flask fermentation with 10 mM 2-FBz or 3-FBz; type: cell-based, Pseudomonas putida
P. knackmussii = assay: as above; type: cell-based, Pseudomonas knackmussii

In the case of O=C(O)/C=C\C=C(\F)C(=O)O [Strain 2-FMA, 2-fluoro-cis,cis-muconate], the “concentration at the end of the fermentation” value (P. putida KT2440; 10 mM 3-FBz, product 2-FMA) is reported as 1.38 mM, the “concentration after substrate depletion” value (P. putida KT2440; from 10 mM 2-FBz) is reported as 1.34 mM and the “product yield YSP” value (P. putida KT2440; substrate 3-FBz) is reported as 0.41 mol mol-1. The YSP (P. knackmussii; from 3-FBz) was 0.41 mol mol-1, the amount produced (P. knackmussii; from 3-FBz) was 1.64 mM and the “product as share of the substrate” value (P. knackmussii; from 3-FBz) was 56%. The amount produced (P. knackmussii; out of 6 mM 2-FBz consumed) was “about 1 mM” and the “product yield coefficient YSP” value (P. knackmussii; substrate 2-FBz paragraph) was 0.14 mol mol^−1.

With Oc1cccc(F)c1O [Strain 3-FC, 3-fluorocatechol] the “concentration reached within the first 7 h” value (P. putida KT2440; 10 mM 3-FBz) was 1 mM, the “concentration at the end of the fermentation” value (P. putida KT2440; 10 mM 3-FBz, intermediate 3-FC) was 0.52 mM and the “initial increase in the culture supernatant up to” value (P. knackmussii; 10 mM 3-FBz, completely re-consumed until 20 h) was 0.94 mM.

In the case of O=C(O)c1ccccc1F [Strain 2-FBz, 2-fluorobenzoic acid], the “time to complete consumption” value (P. putida KT2440; 10 mM 2-FBz, 30 mM glucose) is reported as ≤ 20 h.

With O=C(O)/C=C\C=C/C(=O)O [ccMA, cis,cis-muconic acid] the “maximum concentration in the culture supernatant” value (P. knackmussii; 10 mM 2-FBz, after 30 h) was 1.55 mM.

Work on O=C(O)c1cccc(F)c1 [Strain 3-FBz, 3-fluorobenzoic acid] yielded a total concentration consumed (P. knackmussii; 10 mM 3-FBz supplied) of 2.93 mM.
